{
  "source": "patent US10301287B2",
  "about": "“Solid forms of cenicriviroc mesylate and processes of making solid forms of cenicriviroc mesylate” (Tobira Therapeutics, Inc., priority 2016, dated 2019)",
  "origin": "cited, not measured here",
  "conditions": "cited from earlier work",
  "note": "For at least one compound, name, drawing or mass did not settle the structure.",
  "data": [
    {"compound": "CCCCOCCOc1ccc(-c2ccc3c(c2)/C=C(/C(=O)Nc2ccc([S@@+]([O-])Cc4cncn4CCC)cc2)CCCN3CC(C)C)cc1.CS(=O)(=O)O", "note": "[monomesylate salt]", "values": [
      {"measurement": "Hygroscopicity", "value": "non-hygroscopic"}
    ]}
  ]
}
